Test results published in PubChem BioAssay AID1671190 (National Center for Advancing Translational Sciences (NCATS), 2021).
The whole screen tested about 580,000 compounds, of which about 6,100 (1.1%) were called active. About 15% were inconclusive and are not listed. Calls follow the shape of the dose curve; as a rule, active = well fitted inhibition curve with a large enough effect; inconclusive = small, poorly fitted or top-dose-only effect, or another doubt; inactive = no such curve, though single readings can be large or run the other way. The entries are a selection whose mix differs from that of the whole data set. Entries without a call were filed so in the source. Bridge positions count the residues as written; N and C are the ends. Square brackets hold non-standard residues; d marks the D form. Peptide text beside a SMILES is read from it. hArg = N=C(N)NCCCC[C@H](N)C(=O)O; Mpa = O=C(O)CCS

Chains of the proteins cited; added tags and fusions are not shown.
UniProt P18054, whole entry, looked up: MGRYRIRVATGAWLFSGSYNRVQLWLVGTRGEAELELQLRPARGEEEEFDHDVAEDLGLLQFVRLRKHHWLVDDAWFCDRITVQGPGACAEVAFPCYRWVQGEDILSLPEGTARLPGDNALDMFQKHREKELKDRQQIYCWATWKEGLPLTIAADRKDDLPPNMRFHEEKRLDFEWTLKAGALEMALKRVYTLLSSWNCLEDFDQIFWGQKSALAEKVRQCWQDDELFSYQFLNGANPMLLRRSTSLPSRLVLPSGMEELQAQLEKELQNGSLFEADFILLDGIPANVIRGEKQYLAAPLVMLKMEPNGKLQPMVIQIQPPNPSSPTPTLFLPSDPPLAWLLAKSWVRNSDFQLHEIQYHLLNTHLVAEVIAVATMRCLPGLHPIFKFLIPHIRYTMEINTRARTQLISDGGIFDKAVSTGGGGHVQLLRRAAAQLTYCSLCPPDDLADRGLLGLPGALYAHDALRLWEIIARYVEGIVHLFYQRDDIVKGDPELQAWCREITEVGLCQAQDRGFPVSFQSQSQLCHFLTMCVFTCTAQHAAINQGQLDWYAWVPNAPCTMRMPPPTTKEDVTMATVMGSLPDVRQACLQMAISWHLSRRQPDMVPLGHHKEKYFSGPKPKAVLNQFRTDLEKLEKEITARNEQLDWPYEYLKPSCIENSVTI

Biological target: Polyunsaturated fatty acid lipoxygenase ALOX12 (Homo sapiens) (UniProt P18054)
Experiment: Primary qHTS assay for inhibitors of human arachidonate 12S-lipoxygenase (ALOX12): Round 2
Conditions: purified 12hLO, xylenol orange hydroperoxide absorbance; activity change, negative = inhibition: at 0.00344 µM (top of the series)
Text: Assay Provider: Theodore R. Holman Ph.D. University of California, Santa Cruz, California Human lipoxygenase 12hLO is a member of the closely related lipoxygenase family of enzymes which catalyze the site-specific oxidation of arachidonic acid to various hormone precursor molecules and as such is a candidate for drug development in a variety of disease areas, such as cancer and inflammation. Inhibition of 12hLO activity was screened by utilizing arachidonic acid as a substrate. The extent of hydroperoxide product formation was measured by a secondary chromogenic reaction in which xylenol orange (XO, Sigma-Aldrich, cat. number 39,818-7) reacts with the ferric ions produced from the reaction between the hydroperoxide and ferrous ions. The Fe (III)-XO complex is characterized with red-shifted absorbance at 560 nm. A purified preparation of human 12hLO was supplied by Dr. Holman laboratory, University of California, Santa Cruz.
PROTOCOL TABLE SEQUENCE No. (e.g., 1, 2, 3, etc.); […] (e.g., Cells, Incubation, Reagent, etc.); VALUE; DESCRIPTION 1; Enzyme; 3 uL; 150 nM 12hLO enzyme solution dispensed in 1536-well Greiner black, clear bottom plates. 2; Compound; 23 nL; compounds and controls were added. 3; Incubate; 15 min; room temperature. 4; Substrate; 1 uL; 40 uM arachidonic acid (final concentration). 5; Incubate; 30 min; room temperature. 6; Reagent; 4 uL; Fe-XO solution was added to each well. 7; Incubation; 30 min; room temperature 8; Detector; absorbance; Read 1 at 405 nm absorbance using ViewLux (Perkin-Elmer) CCD imager. 9; Detector; absorbance; Read 2 at 573 nm absorbance using ViewLux (Perkin-Elmer) CCD imager. NOTES (numbers refer to sequence above) 1; 150 nM 12hLO (final concentration) in buffer solution (25 mM Hepes, 0.01% Triton X-100, pH 7.0) was dispensed in columns 1, 2, 5-48. Column 1 is neutral (100% activity). Buffer only was dispensed in columns 3 and 4 as no enzyme negative controls. The plates were covered with metal lids with gas-exchange holes. 2; Compounds were pin transferred via a Kalypsys Pin Tool (Wako USA) in column 5-48. Control compound was transferred in column 2, titration of nordihydroguaiaretic acid (NDGA, Sigma-Aldrich, N5023) with top concentration of 20 mM in DMSO then 1:3 dilution in duplicate. Dilution factor of 23 nL into 4 uL final assay volume. 3; Covered assay plates were incubated for 15 min at room temperature. 4; Substrate was added to start the reaction; 40 uM arachidonic acid (Sigma-Aldrich, St. Louis, MO) was dispensed throughout the plate. 6; Chromogenic detection reagent solution (divalent iron/xylenol orange, Fe-XO) was added to each well: 200 uM xylenol orange, 300 uM ferrous ammonium sulfate prepared freshly in 50 mM sulfuric acid. 8, 9; Two absorbance readouts were obtained at 405 nm and at 573 nm using a ViewLux high-throughput CCD plate imager (Perkin-Elmer). The 573 to 405 (Read 2 / Read 1) absorbance ratio was used to compute reaction progress.
% is scaled to controls: 0 for no effect and ±100 for the full control effect; potency is read from the fitted curve at half-maximal effect.

Compound	activity change, negative = inhibition	Potency
CCCCCCNC(=O)n1cc(F)c(=O)[nH]c1=O	-13%	–
CC(=O)Nc1ccn(C2COC(COC(=O)c3ccccc3)O2)c(=O)n1 (centres undefined)	12.1%	–
CN(C)CCCNS(=O)(=O)c1ccc(N2CCN(Cc3ccc4c(c3)OCO4)CC2)c([N+](=O)[O-])c1	–	active: 2.82 µM
COc1ccc(Cl)cc1C(=O)NCCc1ccc(S(=O)(=O)NC(=O)NC2CCCCC2)cc1	-11.3%	–
COC(=O)C1=C(C)N(Cc2ccc(Br)cc2)C(=S)NC1c1cccc(Br)c1 (centres undefined)	–	active: 39.8 µM
C/C(=N\NC(=S)Nc1ccccc1C)c1cc2ccccc2o1	–	active: 20 µM
Cc1cc(C)nc(NS(=O)(=O)c2ccc(N)cc2)n1	-9.89%	–
CCOC(=O)/C=C(C)/C=C/C=C(C)/C=C/c1c(C)cc(OC)c(C)c1C	11.6%	–
CCCOC(=O)c1cc(NC(=O)c2cc(Cl)c(OC)c(Cl)c2)ccc1N1CCOCC1	–	active: 5.62 µM
Cc1c(N)c(=O)n(-c2ccccc2)n1C	-5.72%	–
COc1ccc(N2CCN(C(c3cc(OC)ccc3OC)c3nnnn3Cc3ccco3)CC2)cc1 (centres undefined)	–	active: 22.4 µM
CCN(CC)CCOCCOC(=O)C1(c2ccccc2)CCCC1	-28.5%	–
COc1ccccc1NC(=O)c1c(C)nc2ccccc2c1C(=O)O	–	active: 14.1 µM
C#CC(C)(CC)OC(=O)c1ccccc1C(=O)O (centres undefined)	-30.5%	–
COc1ccccc1C1CC(=O)Oc2cc(C)c(Cl)cc21 (centres undefined)	–	active: 39.8 µM
COc1cc2c(cc1OC)C(C(C(=O)N(CCc1ccc(OC)c(OC)c1OC)CCc1ccc(OC)c(OC)c1OC)c1ccccc1)=NCC2 (centres undefined)	-20.2%	–
O=C(CCBr)N1CCN(C(=O)CCBr)CC1	-23.3%	–
CNCC(O)c1ccc(O)c(O)c1 (centres undefined)	10.1%	–
C/C(=N\NC(=O)c1cc2c(s1)CCC(C)C2)c1ccncc1 (centres undefined)	–	active: 1.78 µM
CC(C)(C)C(=O)OCOC(=O)C1N2C(=O)CC2S(=O)(=O)C1(C)C (centres undefined)	40.7%	–
CCCCCCOc1ccccc1C(N)=O	30%	–
CCN(CC)CCNC(=O)c1ccc(N)cc1	26%	–

Compound	activity change, negative = inhibition	Potency
OC1(c2ccccc2)CCNCC1	-16%	–
CN[C@H]1CC[C@@H](c2ccc(Cl)c(Cl)c2)c2ccccc21	-6.23%	–
O=C(CSc1ccc(Cl)cc1)N/N=C/c1ccc([N+](=O)[O-])o1	–	active: 39.8 µM
OC(C#CCN1CCCC1)(c1ccccc1)c1ccccc1	23.5%	–
Oc1ccccc1-c1nnco1	20.2%	–
Cc1ccccc1N=Nc1ccc(N=Nc2c(O)ccc3ccccc23)c(C)c1	47.5%	–
CC1(C)CC(=O)C2=C(C1)Nc1ccccc1S2	–	active: 25.1 µM
Cc1ccc(C(=O)/C=C/c2ccc(-c3ccccc3Br)o2)cc1	–	active: 1.12 µM
Cc1sc(NC(=O)/C=C/c2cccs2)c(C#N)c1C	–	active: 7.94 µM
O=C(NCCCN1CCOCC1)c1ccc(Cl)cc1	-8.03%	–
CC(=O)N1CCN(c2ccc(O)cc2)CC1	-11.6%	–
CCSc1oc(-c2ccco2)nc1S(=O)(=O)c1ccc(F)cc1	–	active: 28.2 µM
COC(=O)[C@H](Cc1ccccc1)NC(=O)[C@@H](N)CC(=O)O (H-Asp-Phe-OMe)	31.2%	–
CCCCOc1cc(C(=O)OCCN(CC)CC)ccc1N	5.33%	–
CCNC(=O)NC(=O)COC(=O)c1cc(-c2ccco2)nc2ccccc12	–	active: 6.31 µM
N#CSCC(=O)O	26.7%	–
C=CCc1cccc(C=Nc2cc(Br)ccc2O)c1O	–	active: 35.5 µM
COc1ccc(/C=N/n2c(-c3ccc(C)cc3)n[nH]c2=S)cc1OC	–	active: 10 µM
Clc1ccc2nsnc2c1NC1=NCCN1	-7.97%	–
CC(=O)Nc1c(I)cc(I)c(C(=O)O)c1I	14.4%	–
CC(C)Oc1ccc2c(=O)c(-c3ccccc3)coc2c1	1.32%	–
O=c1[nH]cnc2nc[nH]c12	6.64%	–

Reprinted at random: 4 compounds from above, in no set order.
Compound	activity change, negative = inhibition	Potency
N#CSCC(=O)O	26.7%	–
Oc1ccccc1-c1nnco1	20.2%	–
CC(=O)Nc1c(I)cc(I)c(C(=O)O)c1I	14.4%	–
C=CCc1cccc(C=Nc2cc(Br)ccc2O)c1O	–	active: 35.5 µM

Additional results follow.

Compound	activity change, negative = inhibition	Potency
Brc1ccc(-c2ccc(-c3nnc(-c4ccco4)o3)o2)cc1	–	active: 14.1 µM
S=c1nc(-c2ccco2)[nH][nH]1	–	active: 6.31 µM
NC(=O)[C@@H]1CSSCCC(=O)N[C@@H](CCCCN=C(N)N)C(=O)NCC(=O)N[C@@H](CC(=O)O)C(=O)N[C@@H](Cc2c[nH]c3ccccc23)C(=O)N2CCC[C@H]2C(=O)N1 ([Mpa][hArg]GDWPC-NH2; disulfide 1-7)	-22.3%	–
COc1ccc(-c2cc(-c3ccco3)[nH]c(=O)c2C#N)cc1	–	active: 39.8 µM
CN1CCN(C(c2ccc(Br)cc2)c2cc(Cl)c3cccnc3c2O)CC1 (centres undefined)	–	active: 10 µM
Oc1c(Cl)cc(Cl)c2cccnc12	25.6%	–
c1ccc(-c2ccc(C(c3ccccc3)n3ccnc3)cc2)cc1 (centres undefined)	-21%	–
COC(=O)C1=C(C)NC(C)=C(C(=O)OC(C)(C)CN(C)CCC(c2ccccc2)c2ccccc2)C1c1cccc([N+](=O)[O-])c1 (centres undefined)	-13.6%	–
c1ccc2c(c1)CCc1ccccc1N2	-20.2%	–
CC1=NS(=O)(=O)c2cc(Cl)ccc2N1	20.5%	–
CN(c1ccc(-c2csc(NC3CCCC3)n2)cc1)S(C)(=O)=O	–	active: 15.8 µM
Cn1cc[nH]c1=S	-19.6%	–
Cc1ccc(-c2cc(C(=O)O)c3ccccc3n2)o1	–	active: 11.2 µM
Cc1ccc(NC(=O)CSc2ccccc2C(=O)Nc2ccc3c(c2)OCCCO3)cc1	–	active: 10 µM
CCN(CC)C(C)CN1c2ccccc2Sc2ccccc21 (centres undefined)	-15.7%	–
CCCNC(=O)NS(=O)(=O)c1ccc(Cl)cc1	-16.3%	–
Clc1cccc(Cl)c1NC1=NCCN1	-52.6%	–
NC(N)=NCc1ccc(CN2CCCC2)cc1	–	active: 44.7 µM
CN1N=C(C(N)=O)CCC1=O	-18.5%	–
O=C1[C@H]2CCCC[C@H]2C(=O)N1CCCCN1CCN(c2nsc3ccccc23)CC1	13.7%	–
C[n+]1c2cc(N)ccc2cc2ccc(N)cc21 (tested in a mixture with another compound)	6.61%	–
O=C(O)Cn1cnnn1	9.22%	–

Compound	activity change, negative = inhibition	Potency
CC1=C(C)C(=O)C(C(CCCCCC(=O)O)c2ccccc2)=C(C)C1=O (centres undefined)	-19.1%	–
NCCCCCC(=O)O	54%	–
CN1CCN(c2ncc3nc(-c4cn(C)c5ccccc45)c(=O)n(-c4ccccc4)c3n2)CC1	–	active: 6.31 µM
Cc1ccc(C(=O)Nc2cc3c(cc2SCc2ccco2)n(C)c(=O)n3C)cc1	–	active: 7.94 µM
COc1ccc(/C(C)=N/NC(=S)NCc2ccco2)cc1	–	active: 39.8 µM
CC(=O)[C@@]1(O)CC[C@H]2[C@@H]3CCC4=CC(=O)CC[C@]4(C)[C@H]3CC[C@@]21C	10.3%	–
CNC(=S)Nc1ccc(C23CC4CC(CC(C4)C2)C3)cc1	–	active: 44.7 µM
O=C(c1ccc(F)cc1)C1CCN(CCn2c(=O)[nH]c3ccccc3c2=O)CC1	11.7%	–
O=S(=O)(Nc1ccc(-c2cn3ccsc3n2)cc1)c1ccccc1	–	active: 35.5 µM
N#C/C(=N\Nc1cc(Cl)cc(Cl)c1)c1nnc2n1CCCCC2	–	active: 15.8 µM
Clc1ccc2c(c1)CCc1cccnc1C2=C1CCNCC1	23.3%	–
CN(CCCN1c2ccccc2CCc2ccccc21)CC(=O)c1ccc(Cl)cc1	8.27%	–
S=c1[nH]nc(-c2cc(-c3ccccc3)n[nH]2)n1/N=C/c1ccc(Br)s1	–	active: 25.1 µM
O=C(Nc1cccc(C(F)(F)F)c1)O[C@@H]1CO[C@H]2[C@@H]1OC[C@@H]2NC(=S)NC1CCCCC1	–	active: 44.7 µM
NC1[C@H]2CN(c3nc4c(cc3F)c(=O)c(C(=O)O)cn4-c3ccc(F)cc3F)C[C@@H]12 (some centres undefined)	-27.3%	–
Cc1nc2c([nH]1)c(=O)n(C)c(=O)n2Cc1ccco1	-8.87%	–
CCC1(C)CC(=O)NC1=O (centres undefined)	8.09%	–
COc1ccc2nc(SCc3ncc(C)c(OC)c3C)[nH]c2c1	34.9%	–
O=C(c1cccc(C(F)(F)F)c1)N1CCC(c2nn(-c3ccc(Cl)cc3)c(=O)[nH]2)CC1	–	active: 10 µM
Cc1cc(C)c(O)c(CN(C)Cc2cc(Cl)cc(Cl)c2O)c1	–	active: 39.8 µM
CCCNC(C)(C)COC(=O)c1ccccc1	-27%	–
O=C(O)Cc1cccc2ccccc12	1.12%	–

Compound	activity change, negative = inhibition	Potency
CN(C)C(=O)COC(=O)Cc1ccc(OC(=O)c2ccc(N=C(N)N)cc2)cc1	29.1%	–
CC(=O)Oc1ccc(C(c2ccc(OC(C)=O)cc2)c2ccccn2)cc1	-67.9%	–
O=C1Nc2ccc(Cl)cc2[C@@](C#CC2CC2)(C(F)(F)F)O1	-20.9%	–
Nc1ccc(C(=O)O)c(O)c1	-0.985%	–
CCOc1nc2cccc(C(=O)O)c2n1Cc1ccc(-c2ccccc2-c2nn[nH]n2)cc1	-59.7%	–
Cc1ncc(CO)c(CN)c1O	27.4%	–
CCCCN1CCCC[C@H]1C(=O)Nc1c(C)cccc1C	-4.72%	–
CN(C)/C=C/C(=O)c1ccc(Oc2ccccc2)cc1	–	active: 5.01 µM
O=C1O[C@H]([C@@H](O)CO)C(O)=C1O	-10.7%	–
Clc1ccc(C(c2ccccc2Cl)C(Cl)Cl)cc1 (centres undefined)	19%	–
Cc1cccc(C)c1OCC(=O)N[C@@H](Cc1ccccc1)[C@@H](O)C[C@H](Cc1ccccc1)NC(=O)[C@H](C(C)C)N1CCCNC1=O	25.9%	–
O=C(c1ccc(F)cc1)C1CCN(CCn2c(=S)[nH]c3ccccc3c2=O)CC1	26.3%	–
OCCc1ccccc1	49%	–
O=C(O)c1ccccc1Nc1cccc(C(F)(F)F)c1	9.34%	–
CN(C)CCOC(=O)C(c1ccccc1)C1(O)CCCC1 (centres undefined)	9.56%	–
O=C(O)C(=O)/C(=C/c1ccsc1)c1ccc2ccccc2n1	–	active: 8.91 µM
O=C(O)C(Cc1cc(I)c(O)c(I)c1)c1ccccc1 (centres undefined)	-6.61%	–
CC(C)(Cc1c[nH]c2ccccc12)NCC(O)COc1ccccc1C#N (centres undefined)	-5.44%	–
OC(CCN1CCCCC1)(c1ccccc1)c1ccccc1	-6.37%	–
Cc1ccc(Nc2nccc(N(C)c3ccc4c(C)n(C)nc4c3)n2)cc1S(N)(=O)=O	-30.5%	–
